Reference: US20210363170A1, “4'-THIO-NUCLEOTIDE AND -NUCLEOSIDE PRODRUGS FOR THE TREATMENT OF CANCER” (Southern Research Institute, priority 2018, published 2021)
Some entries share one result that the patent states for a list of compounds.

System: DNMT-1
Assay: Western blot analysis of DNMT-1 depletion in NCI-H23 cells
Format: cell-based
Conditions: 96 hours

| Compound | depletion of DNMT-1 in NCI-H23 cells |
| --- | --- |
| 2-ethylbutyl ((S)-(((2R,3S,5R)-5-(4-amino-2-oxo-1,3,5-triazin-1(2H)-yl)-3-hydroxytetrahydrothiophen-2-yl)methoxy)(phenoxy)phosphoryl)-L-alaninate [Compound 3] | depletion of DNMT-1 |
| C[C@H](N[P@](=O)(OC[C@H]1S[C@@H](n2cnc(N)nc2=O)C[C@@H]1O)Oc1ccccc1)C(=O)OCc1ccccc1 [Compound 1, Benzyl ((S)-(((2R,3S,5R)-5-(4-amino-2-oxo-1,3,5-triazin-1(2H)-yl)-3-hydroxytetrahydrothiophen-2-yl)methoxy)(phenoxy)phosphoryl)-L-alaninate] | depletion of DNMT-1 |
| CC(C)COC(=O)[C@H](C)N[P@](=O)(OC[C@H]1S[C@@H](n2cnc(N)nc2=O)C[C@@H]1O)Oc1ccccc1 [Compound 2, Isobutyl ((S)-(((2R,3S,5R)-5-(4-amino-2-oxo-1,3,5-triazin-1(2H)-yl)-3-hydroxytetrahydrothiophen-2-yl)methoxy)(phenoxy)phosphoryl)-L-alaninate] | depletion of DNMT-1 |
| CC(C)OC(=O)[C@H](C)N[P@](=O)(OC[C@H]1S[C@@H](n2cnc(N)nc2=O)C[C@@H]1O)Oc1ccccc1 [Compound 4, Isopropyl ((S)-(((2R,3S,5R)-5-(4-amino-2-oxo-1,3,5-triazin-1(2H)-yl)-3-hydroxytetrahydrothiophen-2-yl)methoxy)(phenoxy)phosphoryl)-L-alaninate] | depletion of DNMT-1 |
| COC(=O)[C@H](C)N[P@](=O)(OC[C@H]1S[C@@H](n2cnc(N)nc2=O)C[C@@H]1O)Oc1ccccc1 [Compound 5, Methyl ((S)-(((2R,3S,5R)-5-(4-amino-2-oxo-1,3,5-triazin-1(2H)-yl)-3-hydroxytetrahydrothiophen-2-yl)-methoxy)(phenoxy)-phosphoryl)-L-alaninate] | depletion of DNMT-1 |
